The nature of the experiment: qHTS Assay for Lipid Storage Modulators in Drosophila S3 Cells.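 For cell number change: cells counted by Cell Tracker Red CMTPX staining in the red channel.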 As to conditions: BODIPY lipid droplet fluorescence, 18-24 h; for cell number change: measured here: cell count max response, cells fed with added oleic acid. The gist of the method: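 Laser-scanning cytometry quantifies lipid droplet accumulation (500–530 nm total intensity; droplet/cell object ratio) in oleic acid-fed (400 uM added) Drosophila S3 cells treated with a concentration series. 20 uM Triacsin C defined 100% inhibition.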
In general terms: In qHTS, concentration-response curves come from the screen itself.

Setting [1] is: measured here: lipid fluorescence (Fed channel) AC50, cells fed with added oleic acid.
Where [2] appears, read: measured here: cell number channel AC50, cells fed with added oleic acid.

The other results are listed elsewhere or left out. The main result of the screen is listed elsewhere. These columns were measured beside it and carry no call. The list favours compounds with an active or inconclusive main result. Words in brackets tell the shape of the fitted curve; partial curves, single points and poor fits give uncertain potencies.

For the molecule `COC(=O)c1sc(N)c(C(=O)OC)c1COC(=O)CNS(=O)(=O)c1ccc(C)c(C)c1`, the cell number change was 8.2%.
Still for that read-out and setting: the value for `C=CCn1c(SCC(=O)Nc2nncs2)nnc1-c1ccco1` was 5.71%.
As a reminder, the AC50 is the concentration at which the activity in the assay is half-maximal. Read a low AC50 as activity at low concentration. Turning to `COc1ccc(C2C(C#N)=C(N)Oc3n[nH]c(C)c32)cc1Cn1nnc2ccccc21` (stereo unspecified), the cell number change is -19.8%. In addition, under setting [1], the concentration at half-maximal activity (AC50) is 0.92 µM [rising, full curve].
For `CCc1nc2ccccc2c(C(=O)OCC(=O)Nc2ccc(S(=O)(=O)N3CCOCC3)cc2)c1C`, the cell number change is -18.1%.
`O=C(Nc1ccccc1)c1ccc2nsnc2c1`: the cell number change is 24.1%. Moreover, the AC50 under setting [2] is 1.84 µM [rising, full curve, poor fit].
Consider `CCCn1c(=O)c2[nH]c(C3CCCC3)nc2n(CCC)c1=O`, for which the cell number change worked out at 29.7%. Also, under setting [2], the half-maximal activity concentration (AC50) was 4.11 µM [rising, full curve, poor fit]. Further, under setting [1], the half-maximal activity concentration (AC50) is 1.64 µM [rising, full curve].
As for `Cn1cnc2cc(NCc3ccccc3Cl)ccc21`, the cell number change is -7.09%.
In the case of `Oc1ccc2ccccc2c1CN1CCN(c2ccccc2)CC1`, the cell number change is 0.899%. Moreover, the half-maximal activity concentration (AC50) under setting [1] was 0.13 µM [rising, full curve, poor fit].
As for `COCCOC(=O)c1c(NC(=O)CN2c3ccccc3CC2C)sc(C(N)=O)c1C` (stereo unspecified), the cell number change turned out to be 89.9%. For the same molecule, the AC50 under setting [2] is 16.4 µM [rising, partial curve]. Besides, the concentration at half-maximal activity (AC50) under setting [1] was 1.46 µM [rising, single point].
As for `COc1ccc(CCNC(=O)CCN2C(=O)COc3ccccc32)cc1OC`, the AC50 under setting [1] is 0.291 µM [rising, partial curve, poor fit].
As for `COc1ccnc(Nc2cccc(C)c2)c1C#N`, the cell number change was -72%. Further, the AC50 under setting [2] is 23.1 µM [falling, single point]. Moreover, the AC50 under setting [1] is 2.06 µM [falling, partial curve].
In the case of `CC(C)[C@H](NC(=O)c1nn(Cc2ccccc2)c(=O)c2ccccc12)C(=O)O`, the AC50 under setting [1] was 6.51 µM [rising, partial curve, poor fit].
`CC(O)(C#CCN1CCOCC1)c1ccccc1` (stereo unspecified): the cell number change is -26.5%. The concentration at half-maximal activity (AC50) under setting [2] was 0.0731 µM [falling, full curve, poor fit]. The AC50 under setting [1] is 0.13 µM [falling, full curve, poor fit].
On to `CN(C(=O)COC(=O)COc1ccccc1Cc1ccccc1)c1ccccc1`, for which the cell number change was -33.3%.
With `COc1ccc2nc(NC(=O)C3CCN(S(=O)(=O)c4cccnc4)CC3)sc2c1`, the cell number change is 50%. Besides, the AC50 under setting [2] was 0.366 µM [rising, full curve]. The AC50 under setting [1] was 0.366 µM [rising, full curve, poor fit].
On to `COc1ccc(C(=O)/C(C#N)=N/Nc2cccc([N+](=O)[O-])c2)cc1`, for which the cell number change was -54%. Further, the AC50 under setting [2] is 16.4 µM [falling, single point]. The AC50 under setting [1] was 0.58 µM [falling, full curve, poor fit].
With `CC(CNC(=O)CCn1c(=O)c2cccn2c2ccc(F)cc21)c1ccccc1` (stereo unspecified), the cell number change is -1.98%. Besides, under setting [2], the concentration at half-maximal activity (AC50) is 2.91 µM [falling, partial curve, poor fit]. Also, under setting [1], the half-maximal activity concentration (AC50) was 8.2 µM [falling, partial curve].
Take `Cc1ccc2c(c1)N(CC(=O)NC1CCCC1)C(=O)C(C)O2` (stereo unspecified): the cell number change is 47.4%. Further, the AC50 under setting [2] is 18.4 µM [rising, single point]. Also, the concentration at half-maximal activity (AC50) under setting [1] is 4.11 µM [rising, partial curve, poor fit].
On to `O=[N+]([O-])c1cccnc1N1CCC(c2cc(-c3ccc(Cl)cc3Cl)n[nH]2)CC1`, for which the cell number change was -4.03%.
Consider `COc1cc(/C=N/NC2=NC(C)(C)Cc3ccccc32)cc(OC)c1OC`, for which the cell number change is -13.1%.
With `COc1cc(OC)cc(C(=O)NC2CC(C)(C)NC(C)(C)C2)c1`, the cell number change was determined as 2.62%.
Turning to `COc1ccc(C(=O)c2ccc(N(C)C)cc2)c(OC)c1`, the cell number change was found to be 23.9%.
Take `Cc1cc(OC(C)C(=O)NCC(O)c2ccccc2)c2c(C)c(C)c(=O)oc2c1` (stereo unspecified): the AC50 under setting [2] was 1.64 µM [falling, partial curve].
Take `COC(=O)c1cc(=O)[nH]c(SCc2cccc(C)c2)n1`: the AC50 was 0.58 µM [rising, full curve] under setting [2] and 4.11 µM [rising, full curve, poor fit] under setting [1].
For the molecule `CC(C)C(=O)NC(NC(=O)C(C)C)c1ccc([N+](=O)[O-])cc1`, the cell number change was 1.12%. For the same molecule, the AC50 under setting [1] was 16.4 µM [falling, single point].
In the case of `COc1ccc(CN2CCCC(C(=O)N3CCCCC3)C2)cc1` (stereo unspecified), the cell number change was 51.4%. For the same molecule, under setting [2], the AC50 is 29.1 µM [rising, single point].
Regarding `COc1cccc(N2CC(C(=O)Nc3nnc(SCCN4CCOCC4)s3)CC2=O)c1` (stereo unspecified), the cell number change amounted to 37%. For the same molecule, the AC50 under setting [2] is 2.82 µM [rising, partial curve, poor fit]. Also, the AC50 under setting [1] was 12.6 µM [rising, partial curve, poor fit].
Turning to `Cc1cc2c(cc1C)[n+](C)cn2CC(O)COCc1ccccc1` (stereo unspecified), the cell number change was -58.1%. For the same molecule, the half-maximal activity concentration (AC50) under setting [1] is 10.3 µM [falling, partial curve, poor fit].
Turning to `Cc1ccc(C(=O)Nc2ccc3c(c2)OCO3)cc1Cl`, the cell number change came to 30.5%. Moreover, the AC50 under setting [2] was 0.13 µM [rising, full curve, poor fit]. For the same molecule, under setting [1], the AC50 is 6.51 µM [rising, single point].
As for `CCOC(=O)Cc1ncccc1C(=O)Nc1ccc(OC)cc1`, the cell number change was -1.04%.
Turning to `Cc1cccc(NS(=O)(=O)c2cccc(C(=O)NCCCN3CCOCC3)c2)c1`, the cell number change is 66.3%. The AC50 under setting [2] was 29.1 µM [rising, single point]. Under setting [1], the half-maximal activity concentration (AC50) was 6.51 µM [falling, partial curve].
In the case of `Cc1cc(S(=O)(=O)N(Cc2ccccc2Cl)c2ccc3c(c2)CCC3)ccc1-n1cnnn1`, the cell number change stood at 35.5%. Also, under setting [2], the concentration at half-maximal activity (AC50) is 32.6 µM [rising, single point].
For the molecule `O=C(CCC1CCCN(C(=O)c2cccc(F)c2)C1)N1CCN(c2ccccn2)CC1` (stereo unspecified), the cell number change is -14.8%. Besides, under setting [1], the concentration at half-maximal activity (AC50) was 0.13 µM [rising, full curve, poor fit].
`Cc1nn(C)cc1/C=C(/C#N)C(N)=O`: the cell number change is -29.1%.
Turning to `CC(C)C(=O)Nc1ccc(C(=O)Nc2ccc(S(=O)(=O)N3CCOCC3)cc2)cc1`, the cell number change was -31.2%. Also, under setting [1], the AC50 was 18.4 µM [falling, partial curve].
Turning to `COc1ccccc1C/C(N)=N/OC(=O)c1cccs1`, the cell number change was -33.8%. Besides, the AC50 under setting [2] was 0.731 µM [falling, full curve, poor fit]. In addition, the half-maximal activity concentration (AC50) under setting [1] was 0.731 µM [falling, full curve].
Turning to `CC12CCC(=O)N1C(C(=O)N1CCN(S(=O)(=O)c3ccccc3F)CC1)CS2` (stereo unspecified), the cell number change worked out at 10.3%. The AC50 under setting [1] was 16.4 µM [falling, single point].
Take `O=C1CC(N(Cc2ccc3c(c2)OCO3)C(=O)Nc2ccc(F)cc2)C(=O)N1c1ccccc1` (stereo unspecified): the cell number change came to 0.331%.
In the case of `O=C(CN1C(=O)NC2(CCCCC2)C1=O)NCc1cccs1`, the cell number change is -31.7%. Moreover, the concentration at half-maximal activity (AC50) under setting [2] was 3.66 µM [falling, full curve]. Besides, the concentration at half-maximal activity (AC50) under setting [1] is 0.0517 µM [falling, full curve, poor fit].
Regarding `COc1ccc(C(=O)c2coc3ccc(O)cc23)cc1`, the cell number change was -36.1%. The AC50 under setting [2] is 9.2 µM [falling, partial curve].
As to `Cc1ccc(-n2c3nc(=O)[nH]c(=O)c-3cc3cc([N+](=O)[O-])ccc32)cc1`, the cell number change is -24.7%.
On to `Cn1c(=O)c(-c2cc(=O)[nH][nH]2)c(O)c2ccccc21`, for which the cell number change came out at 7.46%. The half-maximal activity concentration (AC50) under setting [1] is 3.26 µM [rising, single point].
Consider `Cc1csc(SCC(=O)c2c(N)n(C)c(=O)n(C)c2=O)n1`, for which the cell number change was -3.23%. The concentration at half-maximal activity (AC50) under setting [2] is 4.11 µM [rising, partial curve].
As to `Cc1ccc(C)c(S(=O)(=O)C(C#N)c2nc3ccccc3nc2N2CCOCC2)c1` (stereo unspecified), the cell number change was -1.42%.
On to `CN(C)c1ccc(NC(=O)CCCc2ccccc2)cc1`, for which the cell number change worked out at 132%. The half-maximal activity concentration (AC50) under setting [2] was 29.1 µM [rising, single point]. Further, the AC50 under setting [1] was 29.1 µM [rising, single point].
Take `O=C(CCNNC(=O)c1ccncc1)NCc1ccccc1`: the AC50 under setting [2] is 0.13 µM [rising, full curve, poor fit].
Consider `COc1ccc(CC(=O)N(Cc2ccccc2)c2cccc(C)c2)cc1OC`, for which the cell number change was found to be 1.45%.
`Cn1c(SCC(=O)N2CCOCC2)nnc1-c1ccncc1`: the cell number change is 5.22%. The half-maximal activity concentration (AC50) under setting [1] was 6.51 µM [falling, single point].
`CCCCCC(=O)Nc1ccc2ccccc2c1`: the cell number change worked out at 21.3%. The AC50 under setting [2] is 4.61 µM [rising, single point]. Besides, the concentration at half-maximal activity (AC50) under setting [1] is 2.06 µM [rising, partial curve].
As to `O=C(Nc1ccc(-c2nc3cccnc3s2)cc1)c1ccc(Cl)nc1`, the cell number change was determined as 33.6%. The AC50 under setting [2] is 0.116 µM [rising, full curve, poor fit].
As to `Cc1ccc(NC(=O)CSc2ncnc3ccccc23)cc1S(=O)(=O)N1CCCCC1`, the cell number change is -6.79%. Besides, the AC50 under setting [1] was 29.1 µM [falling, partial curve].
Regarding `COc1ccc(C(=O)Nc2sc(C)c(-c3ccccc3)c2C#N)cc1OC`, the cell number change turned out to be 26.6%. Also, the AC50 under setting [2] is 1.3 µM [rising, full curve, poor fit].
Take `CC(=O)N1c2ccccc2C(CBr)=CC1(C)C`: the cell number change worked out at 5.68%. Besides, the AC50 under setting [1] was 0.103 µM [falling, full curve, poor fit].
Consider `Cc1ccc(O)c(NC(=O)CSc2n[nH]c(C)c2[N+](=O)[O-])c1`, for which the cell number change was -22%. Under setting [2], the AC50 is 0.731 µM [falling, full curve, poor fit].
With `COc1ccc(C(=O)Cn2nc(CNc3ccc(Br)cc3)[n+]3c2CCCCC3)cc1`, the cell number change was -63.5%. Also, the AC50 under setting [2] is 18.4 µM [falling, single point]. Also, the half-maximal activity concentration (AC50) under setting [1] is 29.1 µM [falling, single point].
For the molecule `CCOc1ccc2ccccc2c1CNc1nnnn1CC`, the cell number change is -42.6%.
On to `CNC(=S)N/N=C/c1cccc(OCc2ccccc2F)c1`, for which the cell number change was 0.977%. Moreover, the AC50 under setting [1] was 29.1 µM [rising, single point].
On to `Cc1c(NC(=S)NC(=O)c2cc3ccccc3o2)c(=O)n(-c2ccccc2)n1C`, for which the cell number change was -6.19%. Also, the concentration at half-maximal activity (AC50) under setting [1] was 2.06 µM [rising, partial curve].
Regarding `O=C(N/N=C\c1ccc(Cl)s1)C1COc2ccccc2O1` (stereo unspecified), the cell number change was determined as 29.1%. Further, the AC50 under setting [2] is 2.06 µM [rising, full curve, poor fit].
Turning to `COc1cc(/C=N/n2nnnc2N)ccc1OC(C)=O`, the cell number change was -11.1%. Moreover, the AC50 under setting [1] is 2.59 µM [falling, partial curve, poor fit].

The record behind these values is PubChem BioAssay AID2685 (National Center for Advancing Translational Sciences (NCATS), 2010).
